Assay results from PubChem BioAssay AID445 (National Center for Advancing Translational Sciences (NCATS), 2006).
The list shows a part of the results. Further columns of the screen follow, without active or inactive calls. The list favours compounds with an active or inconclusive main result. Potencies come from curve fits of mixed quality, noted in brackets.

Assay: IkB Signaling
Settings: ABC-DLBCL IkBa-CBG/CBR dual luciferase ratio (green luciferase fused to IkBa over red control in OCI-Ly3 lymphoma cells), 4 h
Method in brief: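 Curves were fitted separately to fusion (green), unfused (red) and ratio luminescence, then classed by r2, magnitude and activity. Cells: OCI-Ly3, 4 h compound plus doxycycline at 37C; 10 uM MG-132 defined full response.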

[1] = measured here: control luc red channel
[2] = measured here: IkB-luc green channel

SMILES | AC50 [1] | AC50 [2]
Oc1c(Cl)c(Cl)cc(Cl)c1Cl | 39.8 µM [falling, single point] | 
CCCCCCCCCCCCCC(=O)O[C@H]1[C@@H](C)[C@@]2(O)[C@@H](C=C(CO)C[C@]3(O)C(=O)C(C)=C[C@@H]23)C2C(C)(C)[C@]21OC(C)=O (stereo partly drawn) | 0.00251 µM [rising, full curve] | 0.00251 µM [rising, full curve]
Ic1ccccc1CN[C@@H]1C2CCN(CC2)[C@H]1C(c1ccccc1)c1ccccc1 |  | 39.8 µM [falling, partial curve, poor fit]
COc1ccccc1-n1c(/C=C/c2ccccc2)nc2ccccc2c1=O | 31.6 µM [falling, single point] | 
Nc1ccccc1O.O.O=C(O)[C@H]1[O][Sb][O][C@H]1C(=O)O | 3.98 µM [falling, partial curve] | 3.16 µM [rising, partial curve]
Cc1oc(-c2ccc(Cl)cc2)nc1CN1C(=O)CN=C(c2ccccc2)c2cc(Cl)ccc21 | 20 µM [falling, single point] | 
Cc1ccccc1C1=NCC(=O)N(CC(=O)NCc2ccco2)c2sc3c(c21)CCCC3 | 15.8 µM [falling, partial curve] | 
O=C(c1ccc2c(c1)N(Cc1ccc(F)cc1Cl)C(=O)c1ccccc1S2)N1CCC2(CC1)OCCO2 | 25.1 µM [falling, partial curve] | 
CCCCCCC(C)(C)c1ccc([C@@H]2C[C@H](O)CC[C@@H]2CCCO)c(O)c1 | 15.8 µM [falling, full curve] | 
CN1C[C@H](C(=O)N[C@]2(C)O[C@@]3(O)[C@@H]4CCCN4C(=O)[C@H](Cc4ccccc4)N3C2=O)C=C2c3cccc4[nH]cc(c34)C[C@H]21 | 10 µM [falling, partial curve] | 
Nc1c(C(=O)Nc2ccc(OC(F)(F)F)cc2)sc2nc3c(cc12)N1CCC3CC1 | 31.6 µM [falling, single point] | 
CCCNc1oc(-c2cccc3ccccc23)nc1C#N | 3.16 µM [rising, full curve] | 
C[C@@H]1O[C@@H](O[C@H]2C[C@@H](O)[C@]3(CO)[C@@H]4[C@@H](O)C[C@]5(C)[C@H](C6=CC(=O)OC6)CC[C@@]5(O)[C@H]4CC[C@@]3(O)C2)[C@H](O)[C@H](O)[C@@H]1O |  | 0.2 µM [falling, full curve]
O=C1/C(=C\c2ccccc2)C[C@@]2(O)[C@H]3Cc4ccc(O)c5c4[C@@]2(CCN3CC2CC2)[C@@H]1O5 | 3.16 µM [falling, full curve] | 
CN[C@@H](C)[C@@H](O)c1ccccc1 | 31.6 µM [falling, partial curve] | 15.8 µM [rising, partial curve]
N#Cc1cc([N+](=O)[O-])ccc1NC(=O)c1cccn(Cc2cccc(F)c2)c1=O | 25.1 µM [rising, partial curve] | 
O=C(Nc1ccc2c(c1)OCCO2)c1cccn(Cc2cccc([N+](=O)[O-])c2)c1=O | 39.8 µM [falling, single point] | 
C=CCN1C(=O)C2(C(C(=O)OCC)=C(N)Oc3c2c(=O)oc2ccccc32)c2ccccc21 (stereo not drawn) | 0.398 µM [falling, full curve, poor fit] | 

SMILES | AC50 [1] | AC50 [2]
O=C(CCl)c1ccc(Cl)cc1Cl | 10 µM [falling, full curve] | 1 µM [rising, full curve]
COC[C@@H]1OC(=O)c2coc3c2[C@]1(C)C1=C(C3=O)[C@H]2CCC(=O)[C@]2(C)C[C@@H]1OC(C)=O | 2.51 µM [rising, full curve] | 6.31 µM [rising, partial curve]
CN1CCN(c2csc3ccc(F)cc3c2=O)CC1 | 39.8 µM [falling, single point] | 
COP(=O)(OC)OC=C(Cl)Cl | 0.01 µM [rising, full curve, poor fit] | 39.8 µM [rising, single point]
CC(=O)c1c(O)c(C)c(O)c(Cc2c(O)c3c(c(C(=O)/C=C\c4ccccc4)c2O)OC(C)(C)C=C3)c1O | 12.6 µM [falling, partial curve] | 
Cc1nc2cc(F)ccc2n1C1CCN(Cc2nnnn2CCc2ccccc2)CC1 | 25.1 µM [falling, partial curve] | 
N#CC(C#N)=Cc1ccc(O)c(O)c1 | 31.6 µM [falling, partial curve] | 
Cc1ccc(-n2c(/C=C/c3cc(Br)cs3)nc3ccccc3c2=O)cc1C | 39.8 µM [falling, single point] | 
C=C(C)[C@H]1Cc2c(ccc3c2O[C@H]2COc4cc(OC)c(OC)cc4[C@@H]2C3=O)O1 |  | 3.16 µM [rising, full curve]
COCCCn1c(N)c(C(=O)NCCC(C)C)c2nc3ccccc3nc21 | 15.8 µM [falling, partial curve] | 
CC[C@]1(OC(=O)CN)C(=O)OCc2c1cc1n(c2=O)Cc2cc3ccccc3nc2-1 | 0.126 µM [falling, full curve] | 
[Cl-].[Cl-].[Hg+2] | 1.26 µM [falling, full curve] | 0.0398 µM [rising, full curve, poor fit]
Cn1c(=O)n(C)c2cc(CNCCc3ccccc3F)ccc21 | 20 µM [rising, partial curve] | 
Cc1ccc(-n2c(/C=C/c3ccccc3)nc3ccccc3c2=O)cc1Cl | 20 µM [falling, single point] | 
O=C1CC(c2ccccc2Br)c2c(c3ccccc3oc2=O)O1 (stereo not drawn) | 25.1 µM [falling, single point] | 
Oc1cc2c(cc1O)[C@H]1c3ccccc3CN[C@H]1CC2 | 31.6 µM [falling, partial curve] | 
Fc1ccc(C(OCCN2CCN(C/C=C\c3ccccc3)CC2)c2ccc(F)cc2)cc1 | 31.6 µM [falling, partial curve] | 
COc1cc2ccccc2c2cc([N+](=O)[O-])oc12 | 3.98 µM [falling, partial curve] | 

Another view of some results above.

| SMILES | AC50 [1] | AC50 [2] |
| --- | --- | --- |
| C=CCN1C(=O)C2(C(C(=O)OCC)=C(N)Oc3c2c(=O)oc2ccccc32)c2ccccc21 (stereo not drawn) | 0.398 µM [falling, full curve, poor fit] |  |
| O=C(CCl)c1ccc(Cl)cc1Cl | 10 µM [falling, full curve] | 1 µM [rising, full curve] |
